The assay in a line: qHTS Assay for Lipid Storage Modulators in Drosophila S3 Cells.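 As to cell number change: cells counted by Cell Tracker Red CMTPX staining in the red channel.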 To be noted: BODIPY lipid droplet fluorescence, 18-24 h; for cell number change: measured here: cell count max response, cells fed with added oleic acid. The essentials: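 Drosophila S3 cells got compounds at several concentrations plus oleic acid (400 uM solution). Laser-scanning cytometry with 488 nm excitation read lipid droplets at 500-530 nm and cells at 575-640 nm. Percent activity was relative to 20 uM Triacsin C.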

Where [1] appears, read: measured here: cell number channel AC50, cells fed with added oleic acid.
Where [2] appears, read: measured here: lipid fluorescence (Fed channel) AC50, cells fed with added oleic acid.

Each structure is given as a SMILES string. This is one part of the list. Shown are side measurements of this screen, not its main read-out; they come without a call. Compounds called inactive in the main read-out are mostly missing here. The note in brackets gives the kind of curve behind each potency; many fits are weak.

Take `O=S(=O)(c1ccccc1)c1ncc(C(F)(F)F)cc1Cl`: the cell number change is -65.2%. In addition, the AC50 under setting [1] was 5.8 µM [falling, partial curve]. Under setting [2], the AC50 is 0.0291 µM [falling, full curve, poor fit].
With `C=CCNC(=O)COC(=O)c1cc(S(=O)(=O)N2CCOCC2)ccc1N1CCCCC1`, the cell number change was -22.9%. The AC50 under setting [1] is 6.51 µM [falling, partial curve, poor fit]. Moreover, under setting [2], the AC50 was 6.51 µM [falling, partial curve, poor fit].
For `CNC(=O)c1sc(Nc2cc(C)ccc2C)nc1C`, the AC50 under setting [1] was 6.51 µM [rising, single point].
As for `O=C(NCCCl)Nc1ccc(Cl)c([N+](=O)[O-])c1`, the cell number change worked out at 50.2%. For the same compound, under setting [1], the AC50 is 11.6 µM [rising, partial curve].
As for `CCOC(=O)CCC(NC(=O)c1ccc(NCN2C(=O)c3ccccc3C2=O)cc1)C(=O)OCC` (configuration not stated), the cell number change was determined as 34.7%.
In the case of `CC1CCN(CCOc2ccc(Cl)c(Cl)c2)CC1`, the cell number change was -0.647%. Also, the AC50 under setting [2] is 0.58 µM [rising, single point].
Take `COc1ccc(OC)c(C(=O)CSc2nc3ccccc3n2CC(=O)NC(C)(C)C)c1`: the AC50 is, setting by setting: under setting [1], 2.31 µM [rising, partial curve]; under setting [2], 1.3 µM [rising, partial curve].
Consider `Cc1cc(NC(=O)C(C)SCC(=O)OCc2ccc([N+](=O)[O-])cc2)no1` (configuration not stated), for which the cell number change is -13.7%.
On to `CCc1ccc(C(=O)/C=C/Nc2ccc(S(=O)(=O)Nc3onc(C)c3C)cc2)cc1`, for which the cell number change is -43.8%. The half-maximal activity concentration (AC50) under setting [1] is 0.184 µM [rising, partial curve, poor fit]. Also, under setting [2], the AC50 is 18.4 µM [rising, partial curve].
Regarding `Cc1cc(OCn2ccc(C(=O)O)n2)ccc1Cl`, the cell number change came out at 29.3%.
As to `COc1ccc(C2CC(c3ccccc3)=NN2c2ccc(Cl)c(C(=O)O)c2)cc1` (configuration not stated), the cell number change was -23%. For the same compound, the AC50 under setting [2] is 9.2 µM [falling, partial curve].
For the compound `O=C(c1cc2ccccc2oc1=O)N(Cc1ccco1)C1CCS(=O)(=O)C1` (configuration not stated), the cell number change worked out at 3.36%. In addition, the AC50 under setting [2] is 0.731 µM [falling, full curve].
For the compound `Cc1ccc(Oc2ccc3c(c2)C(=O)N(c2cccc4cccnc24)C3=O)cc1`, the cell number change was -2.56%. The AC50 under setting [2] was 8.2 µM [falling, partial curve].
For the compound `COc1ccc(CN2CCNC(=O)C2CC(=O)N(C)Cc2cc(C)no2)cc1OC` (configuration not stated), the cell number change was 5.78%. In addition, under setting [2], the AC50 was 0.00461 µM [rising, full curve, poor fit].
On to `CC(=O)Nc1ccc(S(=O)(=O)N2CCSC2c2ccccc2Cl)cc1` (configuration not stated), for which the cell number change is -87.4%. Moreover, the AC50 under setting [1] is 29.1 µM [falling, single point].
As for `CC(=O)NC(=S)Nc1ccc(NC(=O)COc2ccc(Cl)cc2)cc1`, under setting [1], the AC50 is 0.82 µM [rising, full curve].
Take `CCOc1ccc(-n2c(-c3ccccc3)nnc2-c2ccccc2)cc1`: the cell number change turned out to be 8.16%. The AC50 under setting [2] was 0.651 µM [falling, full curve, poor fit].
Turning to `COc1ccc(N(C(=O)c2ccco2)S(=O)(=O)c2cc(Cl)c(Cl)cc2Cl)cc1`, the cell number change worked out at 47.5%. In addition, the AC50 under setting [1] was 29.1 µM [rising, single point]. For the same compound, the AC50 under setting [2] is 16.4 µM [rising, partial curve].
In the case of `O=S(=O)(c1ccc(Br)cc1)c1nc(-c2ccco2)oc1NCCCn1ccnc1`, the cell number change is -50%. Under setting [1], the AC50 is 4.61 µM [falling, full curve, poor fit].
For the compound `CCCC(=O)c1cc2c(cc1NC(=O)CC)OCCO2`, the cell number change worked out at 7.79%.
Consider `Cc1ccccc1NC(=O)C1CCCN(c2ncnc3onc(-c4ccc(F)cc4)c23)C1` (configuration not stated), for which the cell number change is -4.2%. In addition, the AC50 under setting [2] is 29.1 µM [rising, single point].
`Cc1oc2ccc(OCc3ccc(F)cc3)cc2c1C(=O)O`: the cell number change is -20.9%. In addition, the AC50 under setting [2] was 0.184 µM [falling, full curve, poor fit].
Regarding `O=C(Nc1ccccc1)c1ccco1`, the cell number change was -9.12%. For the same compound, the AC50 under setting [2] is 4.11 µM [falling, full curve].
Consider `COc1ccccc1NC(=O)C(C)n1cnc2c(oc3nc4c(cc32)CCCC4)c1=O` (configuration not stated), for which the AC50 under setting [2] was 4.11 µM [rising, single point].
Regarding `Cc1cc(OCC(=O)Nc2ccccc2N2CCCCC2)ccc1C(C)C`, the cell number change was -50.3%. The AC50 under setting [1] is 29.1 µM [falling, single point]. In addition, the AC50 under setting [2] was 29.1 µM [falling, single point].
As for `O=C(/C=C/c1cccs1)N1CCN(c2ccc(F)cc2)CC1`, the cell number change was found to be 30.1%. Further, the AC50 under setting [1] was 32.6 µM [rising, single point]. The AC50 under setting [2] was 29.1 µM [rising, single point].
Regarding `c1coc(-c2nc3c4c5c(sc4ncn3n2)CCCC5)c1`, the cell number change is -12.8%. Further, the AC50 under setting [2] is 1.84 µM [rising, partial curve].
`COc1ccc(N2CCN(c3nc(NCCc4ccc(OC)c(OC)c4)nc(OC)n3)CC2)cc1`: the cell number change stood at 24.9%. Besides, the AC50 under setting [1] was 0.0651 µM [rising, full curve, poor fit].
Consider `O=C(NN(c1ccccc1)c1ccccc1)c1ccc([N+](=O)[O-])o1`, for which the cell number change is 42.5%. Also, under setting [1], the AC50 was 14.6 µM [rising, single point]. The AC50 under setting [2] was 29.1 µM [rising, single point].
Turning to `Cc1ccc(NC(=O)C2CCN(S(=O)(=O)c3cccs3)CC2)c(O)c1`, the cell number change stood at 5.79%. In addition, the AC50 under setting [2] is 6.31 µM [rising, single point].
Take `CC1CC(C)CN(C(=O)Cn2c(=O)n(CCCC(=O)NCc3ccco3)c(=O)c3sccc32)C1` (configuration not stated): the cell number change is -13.3%. The AC50 under setting [2] was 6.51 µM [rising, single point].
For `Cn1c(=O)[nH]c(=O)c2c1nc(NCc1ccccc1)n2CCCc1ccccc1`, the cell number change is 2.78%. Also, the AC50 under setting [2] was 29.1 µM [rising, single point].
Take `CN(C)/C=C(/C(=O)c1ccc(Cl)cc1Cl)S(=O)(=O)c1ccccc1`: the cell number change was -25.7%.
Consider `CCCNS(=O)(=O)c1ccc(CCC(=O)N2CCC(C)CC2)cc1`, for which the cell number change is 182%. The concentration at half-maximal activity (AC50) under setting [1] is 29.1 µM [rising, single point].
As to `COc1ccc(S(=O)(=O)N(C)CC(=O)Nc2ccc(C(F)(F)F)cc2)cc1Cl`, the cell number change is -12.9%. For the same compound, under setting [1], the AC50 is 6.51 µM [falling, single point].
In the case of `N#Cc1cc2ccccc2n2nnnc12`, the cell number change amounted to 2.25%. The AC50 under setting [2] is 29.1 µM [falling, single point].
For the compound `COc1ccc(C2=NOC(Cn3nc(-c4ccccc4)cc3C(=O)O)C2)cc1` (configuration not stated), the cell number change is -28.9%. For the same compound, the AC50 under setting [1] is 0.092 µM [falling, full curve, poor fit].
Take `CCOc1ccccc1CNC(=O)C1CCCN(c2nc3ccccc3o2)C1` (configuration not stated): the cell number change is -2.86%. Also, the AC50 under setting [2] was 0.291 µM [rising, full curve, poor fit].
As to `COc1ccc(NC(=S)N2CCN(S(C)(=O)=O)CC2)cc1`, the cell number change stood at 16.2%. Also, the AC50 under setting [2] was 18.4 µM [rising, single point].
With `COc1ccccc1NC(=O)N1CCCC1C(=O)NCc1ccc(F)cc1` (configuration not stated), the cell number change came out at 0.748%.
`CCN(CC)C(=O)CP(=O)(c1ccccc1)c1ccccc1`: the cell number change came to 2.48%. The AC50 under setting [2] is 6.51 µM [falling, single point].
Regarding `CCC(C)NC(=O)C1CCN(C(=O)N(C)C)CC1` (configuration not stated), the cell number change is -54.4%. Moreover, the concentration at half-maximal activity (AC50) under setting [1] was 9.2 µM [falling, partial curve, poor fit]. Under setting [2], the concentration at half-maximal activity (AC50) was 29.1 µM [falling, single point].
For `Cc1cc(NC(=O)CSc2nc(-c3ccco3)cc(C(F)(F)F)n2)no1`, the cell number change was -8.88%. Further, the AC50 under setting [2] is 1.84 µM [falling, full curve, poor fit].
As for `CNC(=O)NC(=O)COC(=O)CCCOc1ccc(OC)cc1`, the cell number change is 1.02%. Moreover, the AC50 under setting [1] is 0.00517 µM [falling, full curve, poor fit]. The AC50 under setting [2] is 0.013 µM [falling, full curve, poor fit].
Consider `CC1CCN(c2c(NCC3CCC(C(=O)Nc4ccccn4)CC3)c(=O)c2=O)CC1` (configuration not stated), for which the cell number change came to 13.1%. Under setting [2], the AC50 is 20.6 µM [rising, single point].
Turning to `Cc1ccc(S(=O)(=O)NCCNC(=O)N2CCOCC2)cc1`, the cell number change is -33.9%. Also, the AC50 under setting [1] is 14.6 µM [falling, partial curve]. Besides, the AC50 under setting [2] is 1.16 µM [rising, full curve, poor fit].
Consider `O=C(NCc1ccccn1)c1nc(Cn2cc([N+](=O)[O-])cn2)no1`, for which the cell number change stood at 13.1%. In addition, under setting [2], the AC50 is 29.1 µM [falling, single point].
Take `COC(c1ccccc1)(c1ccccc1)C(Oc1nc(C)cc(C)n1)C(=O)O` (configuration not stated): the cell number change stood at 39.9%. In addition, the AC50 under setting [1] is 29.1 µM [rising, partial curve, poor fit].
For the compound `CN(C(=O)COC(=O)CNC(=O)c1cccs1)c1c(N)n(Cc2ccccc2)c(=O)[nH]c1=O`, the cell number change was -12.5%. In addition, the AC50 under setting [2] is 3.26 µM [rising, partial curve].
Consider `COc1ccccc1CNC(=O)C[n+]1ccccc1`, for which the cell number change is -2.79%.
Consider `O=C(NCCc1ccccc1)c1ccccc1NS(=O)(=O)N1CCCC1`, for which the cell number change was -10.5%.
With `O=C(CC(c1ccco1)C1CCCCC1=O)c1ccco1` (configuration not stated), the cell number change was -0.492%. For the same compound, the AC50 under setting [2] was 0.731 µM [falling, full curve].
`COc1cccc(NC(=S)NCc2ccccn2)c1`: the cell number change is 42.6%. Further, the AC50 under setting [1] is 3.66 µM [rising, single point].
Turning to `Cc1ccc(NC(=O)CCC(=O)Nc2nnc(C3CCCCC3)s2)cc1`, the AC50 under setting [2] is 29.1 µM [falling, single point].
As to `COc1ccc(S(=O)(=O)NCc2ccccn2)cc1NC(=O)c1ccccc1F`, the cell number change is 32.4%. Moreover, the AC50 under setting [2] is 29.1 µM [falling, single point].
As to `Clc1ccc2nc(N3CCCCC3)[nH]c2c1`, the AC50 under setting [2] is 0.00411 µM [falling, full curve, poor fit].
As for `CSc1cccc(NC(=O)N2CCCC(CNS(=O)(=O)Cc3ccccc3)C2)c1` (configuration not stated), the cell number change turned out to be 12.6%. Moreover, under setting [2], the AC50 was 3.66 µM [rising, full curve, poor fit].
With `CN(C)n1cccc1/C=C(\C#N)S(=O)(=O)c1cccc(Cl)c1`, the cell number change worked out at 12.4%.
As to `COc1ccc(S(=O)(=O)N(c2onc(C)c2Cl)S(=O)(=O)c2ccc(OC)cc2)cc1`, the cell number change is -27.1%. Also, the AC50 under setting [2] is 0.651 µM [falling, single point].
Consider `Cc1ccc(-c2cnn(-c3cccc(C(F)(F)F)c3)c2N)cc1`, for which the cell number change stood at 104%. Besides, the AC50 under setting [1] was 20.6 µM [rising, single point]. In addition, the AC50 under setting [2] is 29.1 µM [rising, partial curve].

For orientation: AC50 means the midpoint of the concentration-response curve, whichever way the signal moves.

(Values after PubChem BioAssay AID2685 (National Center for Advancing Translational Sciences (NCATS), 2010).)
